Publication PMC3508985
These are yes or no findings as the source states them, for the method shown. Binding seen in cells or lysates may run through a third protein.

Target: YC-MYCΔZIP
Experiment: split reporter; split-YFP BiFC in living HeLa cells, transient transfection with DsRed as transfection control; after 2 days 1.5 hours at 30°C for maturation; confocal microscopy

B1: YN-ARTD10 (enzyme, UniProt Q53GL7 1-1025)
chain: MVAMAEAEAGVAVEVRGLPPAVPDELLTLYFENRRRSGGGPVLSWQRLGCGGVLTFREPADAERVLAQADHELHGAQLSLRPAPPRAPARLLLQGLPPGTTPQRLEQHVQALLRASGLPVQPCCALASPRPDRALVQLPKPLSEADVRVLEEQAQNLGLEGTLVSLARVPQARAVRVVGDGASVDLLLLELYLENERRSGGGPLEDLQRLPGPLGTVASFQQWQVAERVLQQEHRLQGSELSLVPHYDILEPEELAENTSGGDHPSTQGPRATKHALLRTGGLVTALQGAGTVTMGSGEEPGQSGASLRTGPMVQGRGIMTTGSGQEPGQSGTSLRTGPMGSLGQAEQVSSMPMGSLEHEGLVSLRPVGLQEQEGPMSLGPVGSAGPVETSKGLLGQEGLVEIAMDSPEQEGLVGPMEITMGSLEKAGPVSPGCVKLAGQEGLVEMVLLMEPGAMRFLQLYHEDLLAGLGDVALLPLEGPDMTGFRLCGAQASCQAAEEFLRSLLGSISCHVLCLEHPGSARFLLGPEGQHLLQGLEAQFQCVFGTERLATATLDTGLEEVDPTEALPVLPGNAHTLWTPDSTGGDQEDVSLEEVRELLATLEGLDLDGEDWLPRELEEEGPQEQPEEEVTPGHEEEEPVAPSTVAPRWLEEEAALQLALHRSLEPQGQVAEQEEAAALRQALTLSLLEQPPLEAEEPPDGGTDGKAQLVVHSAFEQDVEELDRALRAALEVHVQEETVGPWRRTLPAELRARLERCHGVSVALRGDCTILRGFGAHPARAARHLVALLAGPWDQSLAFPLAASGPTLAGQTLKGPWNNLERLAENTGEFQEVVRAFYDTLDAARSSIRVVRVERVSHPLLQQQYELYRERLLQRCERRPVEQVLYHGTTAPAVPDICAHGFNRSFCGRNATVYGKGVYFARRASLSVQDRYSPPNADGHKAVFVARVLTGDYGQGRRGLRAPPLRGPGHVLLRYDSAVDCICQPSIFVIFHDTQALPTHLITCEHVPRASPDDPSGLPGRSPDT
B1 was tested. Which binding did it give?
Its binding is “no binding”.
